Results reported in the supplement of paper PMC6411743.
± gives the standard deviation of the averaged measurements. Only a part is listed here, and it is no random draw. Most entries show no effect beyond the scatter of the controls.

The chains behind the UniProt entries cited, without tags or fusion partners. Where a name states a change or a piece, a line headed by the entry shows the natural chain unless it says otherwise.
UniProt Q6P2C8: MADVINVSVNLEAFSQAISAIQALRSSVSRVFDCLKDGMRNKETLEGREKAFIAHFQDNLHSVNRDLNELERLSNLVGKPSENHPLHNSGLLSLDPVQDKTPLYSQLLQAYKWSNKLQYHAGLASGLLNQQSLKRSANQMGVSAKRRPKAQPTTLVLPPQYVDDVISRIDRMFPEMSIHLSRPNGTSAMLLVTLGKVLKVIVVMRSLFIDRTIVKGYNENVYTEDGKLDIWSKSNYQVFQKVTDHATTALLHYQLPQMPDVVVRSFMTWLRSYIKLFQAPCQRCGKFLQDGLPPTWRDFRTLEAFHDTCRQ
UniProt Q6UXN9, whole entry: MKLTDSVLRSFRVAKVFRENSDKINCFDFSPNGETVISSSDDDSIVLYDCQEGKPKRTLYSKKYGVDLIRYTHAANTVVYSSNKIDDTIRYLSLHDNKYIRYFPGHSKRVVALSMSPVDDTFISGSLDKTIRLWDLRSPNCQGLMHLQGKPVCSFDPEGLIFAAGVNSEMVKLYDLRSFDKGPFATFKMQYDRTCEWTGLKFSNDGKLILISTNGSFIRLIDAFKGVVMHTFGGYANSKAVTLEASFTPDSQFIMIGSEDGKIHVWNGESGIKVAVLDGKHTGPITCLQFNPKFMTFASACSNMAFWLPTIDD
UniProt Q6YN16: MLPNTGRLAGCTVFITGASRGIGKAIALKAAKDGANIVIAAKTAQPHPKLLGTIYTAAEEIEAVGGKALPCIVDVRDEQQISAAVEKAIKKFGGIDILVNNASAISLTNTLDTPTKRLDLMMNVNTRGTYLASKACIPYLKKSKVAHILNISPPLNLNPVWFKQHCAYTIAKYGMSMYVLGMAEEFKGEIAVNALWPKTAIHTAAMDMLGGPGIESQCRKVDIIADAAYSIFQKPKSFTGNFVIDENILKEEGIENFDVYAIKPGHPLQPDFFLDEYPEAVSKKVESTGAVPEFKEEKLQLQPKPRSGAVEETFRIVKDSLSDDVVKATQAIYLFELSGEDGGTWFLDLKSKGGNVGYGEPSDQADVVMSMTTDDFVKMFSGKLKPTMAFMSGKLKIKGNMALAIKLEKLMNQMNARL
UniProt Q6UWP7: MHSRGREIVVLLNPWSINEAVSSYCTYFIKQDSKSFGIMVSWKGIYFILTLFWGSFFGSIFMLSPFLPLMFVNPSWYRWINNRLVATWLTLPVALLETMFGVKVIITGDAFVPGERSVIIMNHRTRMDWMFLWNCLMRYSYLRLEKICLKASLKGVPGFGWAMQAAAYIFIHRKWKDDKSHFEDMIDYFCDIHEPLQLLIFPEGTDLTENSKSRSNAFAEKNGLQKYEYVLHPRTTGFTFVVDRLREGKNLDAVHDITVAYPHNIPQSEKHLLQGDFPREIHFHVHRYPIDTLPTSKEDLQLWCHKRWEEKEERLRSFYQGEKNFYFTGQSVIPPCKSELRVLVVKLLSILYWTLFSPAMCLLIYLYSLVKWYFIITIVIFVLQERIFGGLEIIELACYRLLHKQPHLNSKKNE
UniProt Q7Z4G1, whole entry: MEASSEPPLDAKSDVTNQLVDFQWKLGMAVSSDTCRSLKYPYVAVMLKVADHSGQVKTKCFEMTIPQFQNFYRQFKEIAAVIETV
UniProt Q7Z5R6: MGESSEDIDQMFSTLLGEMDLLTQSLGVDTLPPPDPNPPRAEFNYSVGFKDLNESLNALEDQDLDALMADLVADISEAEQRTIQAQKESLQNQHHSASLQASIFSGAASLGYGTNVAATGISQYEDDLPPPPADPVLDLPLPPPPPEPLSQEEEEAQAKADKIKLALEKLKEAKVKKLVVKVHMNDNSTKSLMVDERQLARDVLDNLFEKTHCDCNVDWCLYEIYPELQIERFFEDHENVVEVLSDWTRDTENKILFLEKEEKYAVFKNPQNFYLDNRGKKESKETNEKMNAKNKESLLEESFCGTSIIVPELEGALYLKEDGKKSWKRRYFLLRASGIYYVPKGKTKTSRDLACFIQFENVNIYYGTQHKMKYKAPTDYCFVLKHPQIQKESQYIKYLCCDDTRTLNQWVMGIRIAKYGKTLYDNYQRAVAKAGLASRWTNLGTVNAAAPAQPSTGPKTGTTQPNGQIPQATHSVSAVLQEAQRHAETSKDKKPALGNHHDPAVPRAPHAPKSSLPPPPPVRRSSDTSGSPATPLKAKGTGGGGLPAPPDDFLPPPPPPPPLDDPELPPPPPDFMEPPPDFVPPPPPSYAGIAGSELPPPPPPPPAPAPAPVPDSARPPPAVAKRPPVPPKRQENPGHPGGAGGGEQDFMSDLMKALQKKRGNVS
UniProt Q7L4I2: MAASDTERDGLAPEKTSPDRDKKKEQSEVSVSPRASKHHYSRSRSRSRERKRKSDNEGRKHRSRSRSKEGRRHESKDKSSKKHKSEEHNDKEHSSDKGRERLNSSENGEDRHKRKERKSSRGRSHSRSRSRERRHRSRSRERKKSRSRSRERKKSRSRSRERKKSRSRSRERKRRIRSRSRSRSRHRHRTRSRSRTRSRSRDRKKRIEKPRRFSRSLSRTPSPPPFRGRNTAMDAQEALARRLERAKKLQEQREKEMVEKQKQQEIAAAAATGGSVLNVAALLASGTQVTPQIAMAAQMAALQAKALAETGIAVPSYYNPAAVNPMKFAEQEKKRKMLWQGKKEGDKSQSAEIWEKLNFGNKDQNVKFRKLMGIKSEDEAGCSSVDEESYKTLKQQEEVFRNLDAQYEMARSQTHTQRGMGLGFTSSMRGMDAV
UniProt Q7L9B9: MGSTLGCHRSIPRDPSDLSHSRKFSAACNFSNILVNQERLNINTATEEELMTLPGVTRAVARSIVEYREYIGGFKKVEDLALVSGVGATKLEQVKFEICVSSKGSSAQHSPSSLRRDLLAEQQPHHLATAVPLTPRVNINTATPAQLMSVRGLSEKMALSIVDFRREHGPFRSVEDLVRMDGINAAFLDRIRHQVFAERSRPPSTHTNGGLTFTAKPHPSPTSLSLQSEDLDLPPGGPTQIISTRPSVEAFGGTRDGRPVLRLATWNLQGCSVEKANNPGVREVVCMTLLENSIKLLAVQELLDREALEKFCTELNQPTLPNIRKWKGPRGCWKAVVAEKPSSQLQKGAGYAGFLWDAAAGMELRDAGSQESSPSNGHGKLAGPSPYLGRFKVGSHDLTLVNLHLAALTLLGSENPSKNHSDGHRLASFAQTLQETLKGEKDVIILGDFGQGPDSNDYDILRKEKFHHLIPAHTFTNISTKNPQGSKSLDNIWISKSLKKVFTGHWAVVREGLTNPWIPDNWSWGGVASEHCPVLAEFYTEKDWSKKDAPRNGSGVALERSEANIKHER
UniProt Q6RI45, whole entry: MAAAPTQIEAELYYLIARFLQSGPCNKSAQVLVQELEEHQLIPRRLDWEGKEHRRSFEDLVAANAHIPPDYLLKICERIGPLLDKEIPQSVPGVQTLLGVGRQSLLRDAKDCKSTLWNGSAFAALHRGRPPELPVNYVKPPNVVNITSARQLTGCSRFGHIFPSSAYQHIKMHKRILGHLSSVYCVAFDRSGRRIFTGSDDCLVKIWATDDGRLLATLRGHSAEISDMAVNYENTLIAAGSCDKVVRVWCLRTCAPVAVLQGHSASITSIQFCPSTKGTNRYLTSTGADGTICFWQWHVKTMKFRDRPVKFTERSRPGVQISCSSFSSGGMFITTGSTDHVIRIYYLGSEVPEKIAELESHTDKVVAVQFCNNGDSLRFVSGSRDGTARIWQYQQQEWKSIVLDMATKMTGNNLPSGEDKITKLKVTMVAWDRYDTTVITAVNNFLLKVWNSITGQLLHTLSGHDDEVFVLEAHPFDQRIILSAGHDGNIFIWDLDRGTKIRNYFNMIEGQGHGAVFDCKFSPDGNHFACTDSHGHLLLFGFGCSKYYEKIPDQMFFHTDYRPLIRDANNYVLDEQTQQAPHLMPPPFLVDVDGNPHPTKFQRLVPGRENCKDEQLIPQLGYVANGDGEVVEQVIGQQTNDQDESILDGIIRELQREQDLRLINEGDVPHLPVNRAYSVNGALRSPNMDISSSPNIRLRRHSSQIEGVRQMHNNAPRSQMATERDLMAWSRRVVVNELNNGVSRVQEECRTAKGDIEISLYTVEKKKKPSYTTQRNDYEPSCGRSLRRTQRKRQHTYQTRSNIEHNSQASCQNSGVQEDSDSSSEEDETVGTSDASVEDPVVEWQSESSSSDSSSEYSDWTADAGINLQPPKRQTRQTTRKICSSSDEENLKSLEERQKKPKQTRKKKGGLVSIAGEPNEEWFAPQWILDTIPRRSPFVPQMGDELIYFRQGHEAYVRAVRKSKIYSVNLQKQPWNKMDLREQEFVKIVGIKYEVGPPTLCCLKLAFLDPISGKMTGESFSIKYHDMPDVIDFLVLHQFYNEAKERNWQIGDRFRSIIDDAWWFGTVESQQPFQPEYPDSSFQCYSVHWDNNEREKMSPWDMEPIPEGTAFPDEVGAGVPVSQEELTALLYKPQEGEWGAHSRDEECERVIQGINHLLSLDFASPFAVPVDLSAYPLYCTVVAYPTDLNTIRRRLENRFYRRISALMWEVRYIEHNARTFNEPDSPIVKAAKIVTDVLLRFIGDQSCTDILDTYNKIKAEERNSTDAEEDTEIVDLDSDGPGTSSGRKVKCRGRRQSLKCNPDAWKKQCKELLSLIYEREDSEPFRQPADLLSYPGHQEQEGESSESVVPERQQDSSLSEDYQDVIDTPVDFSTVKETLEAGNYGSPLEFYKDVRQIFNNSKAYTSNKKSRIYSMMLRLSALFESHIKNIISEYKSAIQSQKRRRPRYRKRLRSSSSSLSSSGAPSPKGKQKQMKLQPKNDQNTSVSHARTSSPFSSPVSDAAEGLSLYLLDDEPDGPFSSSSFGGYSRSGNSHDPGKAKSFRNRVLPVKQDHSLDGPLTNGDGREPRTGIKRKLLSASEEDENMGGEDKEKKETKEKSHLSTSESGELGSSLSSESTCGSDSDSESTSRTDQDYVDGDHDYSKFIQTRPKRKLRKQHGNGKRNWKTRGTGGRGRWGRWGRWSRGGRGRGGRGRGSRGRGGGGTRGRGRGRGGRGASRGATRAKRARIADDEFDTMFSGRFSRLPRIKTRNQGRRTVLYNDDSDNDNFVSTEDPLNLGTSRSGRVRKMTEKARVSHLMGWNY
UniProt Q6WKZ4: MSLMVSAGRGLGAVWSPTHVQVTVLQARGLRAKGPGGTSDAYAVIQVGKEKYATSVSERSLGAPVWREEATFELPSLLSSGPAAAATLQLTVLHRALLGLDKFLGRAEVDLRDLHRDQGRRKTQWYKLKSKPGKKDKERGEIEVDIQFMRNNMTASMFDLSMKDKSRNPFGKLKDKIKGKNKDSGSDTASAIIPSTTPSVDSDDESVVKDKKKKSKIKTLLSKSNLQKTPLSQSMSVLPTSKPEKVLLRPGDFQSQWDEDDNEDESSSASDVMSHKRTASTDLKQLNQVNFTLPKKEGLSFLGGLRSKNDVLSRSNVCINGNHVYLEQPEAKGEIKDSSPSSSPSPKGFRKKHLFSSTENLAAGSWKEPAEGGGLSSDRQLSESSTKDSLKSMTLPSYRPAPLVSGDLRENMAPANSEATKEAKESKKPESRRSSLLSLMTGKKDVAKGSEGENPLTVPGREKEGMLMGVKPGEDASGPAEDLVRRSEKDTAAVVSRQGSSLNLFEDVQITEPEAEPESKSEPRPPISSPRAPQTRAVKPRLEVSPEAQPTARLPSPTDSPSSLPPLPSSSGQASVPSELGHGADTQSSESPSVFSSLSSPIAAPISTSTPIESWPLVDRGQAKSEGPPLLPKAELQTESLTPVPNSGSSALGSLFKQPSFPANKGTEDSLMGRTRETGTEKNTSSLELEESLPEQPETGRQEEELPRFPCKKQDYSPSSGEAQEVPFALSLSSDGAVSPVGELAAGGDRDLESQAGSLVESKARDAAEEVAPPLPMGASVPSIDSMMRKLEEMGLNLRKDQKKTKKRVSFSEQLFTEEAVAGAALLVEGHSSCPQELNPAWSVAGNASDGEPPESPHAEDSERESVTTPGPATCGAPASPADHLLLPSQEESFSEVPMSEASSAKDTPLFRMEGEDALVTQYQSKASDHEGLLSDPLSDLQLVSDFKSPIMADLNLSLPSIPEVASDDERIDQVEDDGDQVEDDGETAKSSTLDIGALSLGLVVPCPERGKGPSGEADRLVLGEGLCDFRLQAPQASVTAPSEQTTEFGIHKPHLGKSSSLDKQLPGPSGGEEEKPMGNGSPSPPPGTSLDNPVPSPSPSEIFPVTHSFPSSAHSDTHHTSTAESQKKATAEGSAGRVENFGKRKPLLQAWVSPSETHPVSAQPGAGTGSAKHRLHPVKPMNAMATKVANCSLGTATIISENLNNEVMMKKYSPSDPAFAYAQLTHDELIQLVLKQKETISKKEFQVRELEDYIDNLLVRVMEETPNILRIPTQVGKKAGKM
UniProt Q6ICB0: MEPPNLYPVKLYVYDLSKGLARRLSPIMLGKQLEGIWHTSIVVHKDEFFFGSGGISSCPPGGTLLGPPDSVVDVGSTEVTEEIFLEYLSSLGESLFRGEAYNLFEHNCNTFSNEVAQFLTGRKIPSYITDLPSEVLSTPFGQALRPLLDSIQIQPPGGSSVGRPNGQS

compound: Nc1ncnc2c1ncn2[C@@H]1O[C@H](COP(=O)(O)OP(=O)(O)NP(=O)(O)O)[C@@H](O)[C@H]1O [adenylyl imidodiphosphate]; test: NP40-soluble protein abundance relative to vehicle (solubility fold change) (ratio); higher = more soluble protein in presence of AMP-PNP; details: concentration: 0.1mM
Outline: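 Jurkat crude lysate (Dounce-homogenised) was treated with eight concentrations from 0.1 to 10 mM for 10 min at room temperature, then 3 min at 37 °C. It was solubilised with 0.8% NP40 and benzonase (60 min, 4 °C) and ultracentrifuged, and the supernatant was TMT-labelled for LC-MS/MS. Intensities were vsn-normalised, and the value is the fold change against the NP40-processed vehicle per replicate, from three independent experiments.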

DUS1L (UniProt Q6P1R4) was tested. Which NP40-soluble protein abundance did it give?
Its NP40-soluble protein abundance is 1 ± 0.042.

UniProt Q6UWE0 and related entries was tested. Which NP40-soluble protein abundance did it give?
Its NP40-soluble protein abundance is 1.002 ± 0.0039.

Which NP40-soluble protein abundance does the source give for UniProt Q6P2C8 and related entries here?
Its NP40-soluble protein abundance is 1 ± 0.025.

How did the NP40-soluble protein abundance turn out when UniProt Q68CQ4 was run?
The NP40-soluble protein abundance was 1.03 ± 0.031.

How did the NP40-soluble protein abundance turn out when UniProt Q6UXN9 and related entries was run?
The NP40-soluble protein abundance was 1.06 ± 0.025.

For “Q5VY60 and related entries (UniProt Q7Z4H7)”, which NP40-soluble protein abundance is on record?
Its NP40-soluble protein abundance is 1.05 ± 0.03.

With NUFIP2 (UniProt Q7Z417) as the target, how does the NP40-soluble protein abundance read?
The NP40-soluble protein abundance was 1 ± 0.032.

How did the NP40-soluble protein abundance turn out when HSDL2 (UniProt Q6YN16) was run?
Its NP40-soluble protein abundance is 0.9704 ± 0.0053.

UniProt Q6UWP7 and related entries was tested. Which NP40-soluble protein abundance did it give?
Its NP40-soluble protein abundance is 1.01 ± 0.03.

For “UniProt Q6PJT7-2|Q6PJT7-3|Q6PJT7-5|Q6PJT7-9|Q6PJT7”, which NP40-soluble protein abundance is on record?
The NP40-soluble protein abundance was 0.98 ± 0.014.

For UniProt Q7Z4G1 and related entries, which NP40-soluble protein abundance is on record?
Its NP40-soluble protein abundance is 1.04 ± 0.022.

same assay, conditions: concentration: 0.5mM

Which NP40-soluble protein abundance does the source give for APBB1IP (UniProt Q7Z5R6) here?
Its NP40-soluble protein abundance is 0.974 ± 0.019.

Which NP40-soluble protein abundance does the source give for UniProt Q6ULP2 and related entries here?
The NP40-soluble protein abundance was 0.977 ± 0.043.

With CYB5R4 (UniProt Q7L1T6) as the target, how does the NP40-soluble protein abundance read?
The NP40-soluble protein abundance was 0.9947 ± 0.0071.

Which NP40-soluble protein abundance does the source give for FAM91A1 (UniProt Q658Y4) here?
The NP40-soluble protein abundance was 0.982 ± 0.068.

With UniProt Q7Z591 and related entries as the target, how does the NP40-soluble protein abundance read?
Its NP40-soluble protein abundance is 1.01 ± 0.011.

Which NP40-soluble protein abundance does the source give for UniProt Q7L4I2 and related entries here?
Its NP40-soluble protein abundance is 1.018 ± 0.0023.

For UniProt Q6ZMI0, which NP40-soluble protein abundance is on record?
Its NP40-soluble protein abundance is 0.998 ± 0.054.

Which NP40-soluble protein abundance does the source give for UniProt Q6ZSZ5 here?
Its NP40-soluble protein abundance is 1.02 ± 0.072.

Which NP40-soluble protein abundance does the source give for NADSYN1 (UniProt Q6IA69) here?
The NP40-soluble protein abundance was 0.982 ± 0.058.

For UniProt Q7Z3K6 and related entries, which NP40-soluble protein abundance is on record?
The NP40-soluble protein abundance was 1 ± 0.042.

EEPD1 (UniProt Q7L9B9) was tested. Which NP40-soluble protein abundance did it give?
Its NP40-soluble protein abundance is 0.973 ± 0.05.

For HS2ST1 (UniProt Q7LGA3), which NP40-soluble protein abundance is on record?
Its NP40-soluble protein abundance is 1.04 ± 0.028.

UniProt Q6GPH4 and related entries was tested. Which NP40-soluble protein abundance did it give?
The NP40-soluble protein abundance was 0.98 ± 0.051.

How did the NP40-soluble protein abundance turn out when ABHD13 (UniProt Q7L211) was run?
The NP40-soluble protein abundance was 1 ± 0.027.

For MRM1 (UniProt Q6IN84), which NP40-soluble protein abundance is on record?
Its NP40-soluble protein abundance is 1.01 ± 0.033.

With UniProt Q7KYR7 and related entries as the target, how does the NP40-soluble protein abundance read?
The NP40-soluble protein abundance was 0.989 ± 0.038.

Which NP40-soluble protein abundance does the source give for UniProt Q6RI45 and related entries here?
Its NP40-soluble protein abundance is 1.01 ± 0.011.

UniProt Q5VSL9 was tested. Which NP40-soluble protein abundance did it give?
The NP40-soluble protein abundance was 0.976 ± 0.047.

Which NP40-soluble protein abundance does the source give for RAB11FIP1 (UniProt Q6WKZ4) here?
Its NP40-soluble protein abundance is 0.988 ± 0.035.

With UniProt Q6UN15 and related entries as the target, how does the NP40-soluble protein abundance read?
Its NP40-soluble protein abundance is 1.02 ± 0.067.

For UniProt Q6P9B6, which NP40-soluble protein abundance is on record?
The NP40-soluble protein abundance was 1.017 ± 0.0066.

How did the NP40-soluble protein abundance turn out when UniProt Q6Y7W6 and related entries was run?
The NP40-soluble protein abundance was 0.989 ± 0.049.

How did the NP40-soluble protein abundance turn out when UniProt Q6UB98 and related entries was run?
The NP40-soluble protein abundance was 1 ± 0.056.

How did the NP40-soluble protein abundance turn out when ERICH5 (UniProt Q6P6B1) was run?
The NP40-soluble protein abundance was 0.976 ± 0.044.

MON1B (UniProt Q7L1V2) was tested. Which NP40-soluble protein abundance did it give?
The NP40-soluble protein abundance was 1.05 ± 0.021.

How did the NP40-soluble protein abundance turn out when MYSM1 (UniProt Q5VVJ2) was run?
Its NP40-soluble protein abundance is 0.948 ± 0.088.

Which NP40-soluble protein abundance does the source give for UniProt Q6ICB0 here?
Its NP40-soluble protein abundance is 1 ± 0.03.

With DUS1L (UniProt Q6P1R4) as the target, how does the NP40-soluble protein abundance read?
Its NP40-soluble protein abundance is 1.02 ± 0.04.

For UniProt Q6UWE0 and related entries, which NP40-soluble protein abundance is on record?
Its NP40-soluble protein abundance is 0.979 ± 0.014.

Which NP40-soluble protein abundance does the source give for UniProt Q6P2C8 and related entries here?
The NP40-soluble protein abundance was 1.02 ± 0.037.

How did the NP40-soluble protein abundance turn out when UniProt Q68CQ4 was run?
The NP40-soluble protein abundance was 1.02 ± 0.041.

UniProt Q6UXN9 and related entries was tested. Which NP40-soluble protein abundance did it give?
Its NP40-soluble protein abundance is 1 ± 0.094.

Which NP40-soluble protein abundance does the source give for “Q5VY60 and related entries (UniProt Q7Z4H7)” here?
The NP40-soluble protein abundance was 1.03 ± 0.047.

With NUFIP2 (UniProt Q7Z417) as the target, how does the NP40-soluble protein abundance read?
Its NP40-soluble protein abundance is 1.06 ± 0.049.

How did the NP40-soluble protein abundance turn out when HSDL2 (UniProt Q6YN16) was run?
Its NP40-soluble protein abundance is 0.988 ± 0.021.

For UniProt Q6UWP7 and related entries, which NP40-soluble protein abundance is on record?
The NP40-soluble protein abundance was 0.991 ± 0.057.

Which NP40-soluble protein abundance does the source give for “UniProt Q6PJT7-2|Q6PJT7-3|Q6PJT7-5|Q6PJT7-9|Q6PJT7” here?
The NP40-soluble protein abundance was 1.003 ± 0.0076.

With UniProt Q7Z4G1 and related entries as the target, how does the NP40-soluble protein abundance read?
Its NP40-soluble protein abundance is 1.03 ± 0.017.
